These results are taken from article PMC7819943, “Rice protein-binding microarrays: a tool to detect cis-acting elements near promoter regions in rice”.

Some of the results follow.

For the assay, the target named is T1, OsSMF1 (Oryza sativa, UniProt Q6ZLB0 1-436).
T1 sequence: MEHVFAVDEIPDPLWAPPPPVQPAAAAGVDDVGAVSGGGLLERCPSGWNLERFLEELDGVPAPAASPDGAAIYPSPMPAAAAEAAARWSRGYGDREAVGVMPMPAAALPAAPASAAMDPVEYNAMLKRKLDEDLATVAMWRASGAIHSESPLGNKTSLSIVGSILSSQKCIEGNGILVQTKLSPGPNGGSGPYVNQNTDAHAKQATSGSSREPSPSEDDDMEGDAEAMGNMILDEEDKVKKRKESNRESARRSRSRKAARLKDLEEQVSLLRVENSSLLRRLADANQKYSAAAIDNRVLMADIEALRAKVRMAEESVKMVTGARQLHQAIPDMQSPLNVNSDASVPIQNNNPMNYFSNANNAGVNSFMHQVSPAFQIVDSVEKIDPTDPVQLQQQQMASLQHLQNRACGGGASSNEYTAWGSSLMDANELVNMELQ
The assay can be described thus: protein-binding microarray (RPBM); PBS, 2% BSA, 51.3 ng/ul salmon testes DNA, 50 uM zinc acetate, 200 nM TF, 25 C, 1 h; high values mean tight binding. Conditions: protein: recombinant; tags: N-terminal polyhistidine and DsRed monomer fusion (pET32a); chain copies: 2; label: CyDye5-dUTP incorporated in the synthesized complementary strand; 3' TTTTT single-stranded linker to array surface; dsDNA, one strand shown. Summed up: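 An Axon 4000B scanner gave the binding signal as per-feature fluorescence intensity in arbitrary units. This followed washing of a custom Agilent array that had been incubated for 1 h at 25 °C with 200 nM protein in PBS, 2% BSA, salmon testes DNA and 50 µM zinc acetate. The proteins were transcription factors fused at the N-terminus to polyhistidine and DsRed, expressed in E. coli BL21-CodonPlus and purified on Ni–NTA.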
For “TGTCCTCGAACACGGGGCGCTCACTCTCTCTCTCTCTCTCCGGAGTCACCTAGTGCAG”, the binding signal is 3500 fluorescence intensity (a.u.).
Regarding “GGCGGAGGGAGTGCTCGACGCGTGGAGCTGACGTGCCAACCGGAGTCACCTAGTGCAG”, the binding signal was 15800 fluorescence intensity (a.u.).
For the sequence “ACATCCGCGTGCGCGTGGGTATGCCATGTCGATATGTAACCGGAGTCACCTAGTGCAG”, the binding signal was 3720 fluorescence intensity (a.u.).
With “CCGACCGAGACAGTGCTGCCTCGTCGGCTTCCTCTCGCCGCGGAGTCACCTAGTGCAG” the figure was 3410 fluorescence intensity (a.u.); with “TACATTATATTCAATTCTAACTTTCGGAAATATTATATAGCGGAGTCACCTAGTGCAG”, 26900 fluorescence intensity (a.u.); with “CCTGCCACCGTGCCACCGCCTCTCCGTCCCCATCACCCTCCGGAGTCACCTAGTGCAG”, 3230 fluorescence intensity (a.u.).
Take “TGTATTTGTCGGCTTGCATCGTCACGGTCTCTGTCACCTCCGGAGTCACCTAGTGCAG”: the binding signal is 10500 fluorescence intensity (a.u.).
“GAATGAAAACTCAGGGGTAAGTAGGAGATGACGCAAAGTTCGGAGTCACCTAGTGCAG”: the binding signal was 3580 fluorescence intensity (a.u.).
With “CGGTGGCGGCGGCGGCAGCATCCTGAGCGACGCGCTGGTGCGGAGTCACCTAGTGCAG” the figure was 30100 fluorescence intensity (a.u.); with “CACGAGGGACGCCCAATCCTCCGTGTCCGTTGGCTCAACTCGGAGTCACCTAGTGCAG”, 3780 fluorescence intensity (a.u.); with “ACATCCGCGTTGTGATTTGGGTTGAGCGCACTACTCCACGCGGAGTCACCTAGTGCAG”, 3360 fluorescence intensity (a.u.).
With “AGACCTAGATGGGCATCGATTTCAAGTCAATGTCGTCCCACGGAGTCACCTAGTGCAG” the figure was 5720 fluorescence intensity (a.u.); with “TTCCATGACACGGCATGGATCGAGCTTTCTACAGTAGCTACGGAGTCACCTAGTGCAG”, 3730 fluorescence intensity (a.u.); with “CAGACGGCGGTGCGCGGTCGACCCGCCGTCTGCCACGTCACGGAGTCACCTAGTGCAG”, 36300 fluorescence intensity (a.u.).
Then “GTGACACAACAAGTCGGATCAGCAACCGCCTCCCTCACCCCGGAGTCACCTAGTGCAG”, with 11200 fluorescence intensity (a.u.); and “CGCACTCAGGTTCCATGATACCTCCACGTGGCCGCGGAGTCGGAGTCACCTAGTGCAG”, with 15500 fluorescence intensity (a.u.).
On to “GTTCGGGGCGTGACAATATGTTAGGGTGTGACAGTTAGTTCGGAGTCACCTAGTGCAG”, for which the binding signal is 3300 fluorescence intensity (a.u.).
With “TGCTACTGCGCTATCATGACTGTACTGAAGCCCGGCAGCCCGGAGTCACCTAGTGCAG” the figure was 5820 fluorescence intensity (a.u.); with “AGTGTCAGTACACACACTAGCTTCTCTCACCGGCTCTCCGCGGAGTCACCTAGTGCAG”, 3210 fluorescence intensity (a.u.).
As for “CAGCACACGGAGCTCCACACCACTCTAGCCAAACTATCAACGGAGTCACCTAGTGCAG”, the binding signal was 26100 fluorescence intensity (a.u.).
In the case of “GCCACGCTATTTAGCGCTGAGGTGTCTAAGTTCAGCACCACGGAGTCACCTAGTGCAG”, the binding signal was 3800 fluorescence intensity (a.u.).
Then “CACCAGCACATAAACACAAACCCACAGAAGACATTGCATTCGGAGTCACCTAGTGCAG”, with 5420 fluorescence intensity (a.u.); and “GTTCGTTGTTGCCACGTGCCACGGCCCGGCCCGGCCCATGCGGAGTCACCTAGTGCAG”, with 11000 fluorescence intensity (a.u.).
